# In PubChem BioAssay AID590 (National Center for Advancing Translational Sciences (NCATS), 2007):
# About 6,500 (11%) of roughly 59,000 compounds were called active. Inconclusive means that the source gave no clear call. Such entries were picked first, then a sample of the others. Rule as the data show it: active = max dye-equivalent concentration above about 10 nM; inconclusive = mostly about 1.1 nM to 9.6 nM; inactive = weaker than that.
# Test: qHTS Assay for Spectroscopic Profiling in A350 Spectral Region
# Conditions: Compound autofluorescence, 340/450 nm, Alexa 350 dye-equivalents; hits give high values
row,Structure (SMILES),max dye-equivalent concentration
1,Cc1ccccc1CNS(=O)(=O)c1ccc2c(c1)OCCO2,active: 18 nM
2,CC(=O)NC(CCS(C)(=O)=O)C(=O)Nc1nc(C)cs1 (stereo not given),inconclusive: 1.3 nM
3,COc1ccccc1OCCC(=O)OCC(=O)NC(=O)NC(C)(C)C,inactive
4,COc1ccc(CN2C(=O)CN=C2Nc2cccc(C)c2C)cc1,inactive
5,O=c1[nH]c2ccc(S(=O)(=O)N3CCN(C4CCCCC4)CC3)cc2[nH]c1=O,inconclusive: 4.6 nM
6,Cc1nc(C)c(C(=O)C2=C(O)C(=O)N(CCN3CCOCC3)C2c2cccnc2)s1 (stereo not given),inconclusive: 5.7 nM
7,CCOc1cc(N2CCOCC2)c(OCC)cc1NC(=O)c1ccc(=O)n(Cc2ccccc2)n1,inconclusive: 1.7 nM
8,CC1CCCN(c2nc3ccccc3nc2C(C#N)C(=O)OC2CCCCC2)C1 (stereo not given),inconclusive: 2 nM
9,COC(=O)Nc1sc2c(c1C(N)=O)CCCCCC2,inconclusive: 1.3 nM
10,c1ccc(-n2ncc3c(N4CCN(c5ccccn5)CC4)nc(N4CCOCC4)nc32)cc1,inconclusive: 8 nM
11,COc1ccc2oc(C)c(NC(C)=O)c2c1,inconclusive: 1.4 nM
12,Cc1cc(=O)oc2cc(OCC3CC(c4ccc(N(C)C)cc4)=NO3)ccc12 (stereo not given),active: 11 nM
13,O=C(COC(=O)CCC(=O)Nc1nccs1)NCc1ccco1,inactive
14,O=C(NCc1cccs1)c1nc2c(nnn2Cc2ccccc2Cl)c(=O)[nH]1,inconclusive: 2.1 nM
15,CCCc1nc(SCC(=O)Nc2cc(C)on2)c2ccccc2n1,inconclusive: 1.3 nM
16,CCOC(=O)N1CCN(C(=O)c2ccccc2N(C)S(C)(=O)=O)CC1,inactive
17,O=C(Nc1ccccn1)c1cc(-n2cnnc2)ccc1Cl,inconclusive: 1.8 nM
18,COc1cccc(-n2c(SCC(=O)O)nnc2-c2cccnc2)c1,inconclusive: 1.8 nM
19,Cc1csc(NC(=O)CSc2nnc(-c3ccco3)n2C)n1,inconclusive: 4 nM
20,COc1cccc(C(=O)N(Cc2cc3cc(C)ccc3[nH]c2=O)CC2CCCO2)c1 (stereo not given),active: 11 nM

row,Structure (SMILES),max dye-equivalent concentration
1,COC(=O)CSc1nnc(-c2ccc(S(=O)(=O)N3CCCCC3)cc2)o1,inconclusive: 3 nM
2,CC1CCc2nc(NCCO)nc(C(F)(F)F)c2C1 (stereo not given),inconclusive: 1.3 nM
3,CCOC(=O)CCNC(=O)Nc1ccc2nc(C)n(Cc3ccccc3Cl)c(=O)c2c1,inconclusive: 1.2 nM
4,Cc1occc1C(=O)Nc1sc2c(c1C(N)=O)CCCCC2,active: 29 nM
5,COc1cccc(/C=N/n2cncn2)c1OCC#N,inconclusive: 4.9 nM
6,C=CCn1c(CCNC(=O)C(C)(C)C)nc2ccccc21,inactive
7,CCOC(=O)c1ccccc1NC(=O)COc1ccccc1,inconclusive: 1.2 nM
8,CCOCC(=O)Nc1ccc(-c2cn3cccnc3n2)cc1,active: 5700 nM
9,Cc1nnc2c(NC(C)C)nc3ccccc3n12,inactive
10,CCOC(=O)CC(=O)CSc1nc(N)c(C#N)c(-c2ccc(F)cc2)c1C#N,active: 47 nM
11,CCn1nc(C(=O)N2CCc3ccccc3C2)c2ccccc2c1=O,inconclusive: 2.7 nM
12,O=C1OC(N2CCN(Cc3ccccc3)CC2)c2ccccc21 (stereo not given),inconclusive: 7.6 nM
13,COCCCn1c(=N)c(C(=O)NCc2ccc3c(c2)OCO3)cc2c(=O)n3ccccc3nc21,active: 140 nM
14,CCCn1nc(NC(=O)c2ccco2)c2cc3ccc(C)cc3nc21,active: 94 nM
15,O=C(C1CCN(S(=O)(=O)c2ccc(Br)s2)CC1)N1CCc2ccccc21,inconclusive: 1.2 nM
16,Cc1noc(C)c1CSCC(=O)NC1=NCCS1,inconclusive: 2.8 nM
17,CCOC(=O)C1CCCN(c2ccc(NC(=O)c3snc4c(=O)[nH]cnc34)cc2)C1 (stereo not given),inactive
18,O=C(CSc1nnc(Cc2ccccc2)n1-c1ccc(F)cc1)N1CCOCC1,inconclusive: 1.3 nM
19,CN1C(=O)N(C)C2CC1N(C)C(=O)N2C,active: 12 nM
20,Cc1cc(NS(=O)(=O)c2ccc(NC(=O)NC3CCCCC3)cc2)no1,inconclusive: 1.1 nM

row,Structure (SMILES),max dye-equivalent concentration
1,N#Cc1c(N)oc(-c2ccco2)c1-c1ccco1,inconclusive: 6 nM
2,CCOC(=O)CCc1c(C)nc(SCC(=O)O)c(C#N)c1C,inactive
3,COc1cc2c(cc1NC(=O)c1cccnc1)CCCC2,inactive
4,CCN(C(=O)c1c(-c2ccccc2)noc1C)c1ccccc1,active: 21 nM
5,O=C(OC(C(=O)NCC1CCCO1)c1ccccn1)c1cccs1 (stereo not given),inactive
6,COc1cc(NC(=O)c2ccc(COCC(F)(F)F)o2)cc(OC)c1OC,inconclusive: 4.3 nM
7,Cc1nc2ccccc2n1CCc1nc2c3ccccc3nc(SCC(=O)NCc3ccco3)n2n1,inactive
8,Cc1cc(C)c2cc(C(c3nnnn3CC3CCCO3)N3CCN4CCCC4C3)c(=O)[nH]c2c1 (stereo not given),active: 22 nM
9,O=c1c2ccccc2nc2n1CC/C2=C/N1CCN(c2cccc(C(F)(F)F)c2)CC1,inconclusive: 1.2 nM
10,O=c1c2ccccc2nnn1CSc1nnc(-c2cccs2)n1Cc1ccccc1,inactive
11,Cc1ccccc1Cn1c(C(C)O)nc2ccccc21 (stereo not given),inconclusive: 2.9 nM
12,CCS(=O)(=O)NCCc1csc(C)n1,inactive
13,Clc1ccc(Cn2ncc3c(N4CCOCC4)ncnc32)cc1,inactive
14,Cc1ccc(C(O)c2cccnc2)o1 (stereo not given),inconclusive: 1.6 nM
15,Cc1ccc(S(=O)(=O)OC2CCN(C)CC2)cc1,inactive
16,N=c1sccn1CC(=O)Nc1ccc(S(=O)(=O)N2CCOCC2)cc1,inconclusive: 2.9 nM
17,Cc1ccc(C(=O)Nc2nc3ccc(S(C)(=O)=O)cc3s2)s1,inconclusive: 6.5 nM
18,COc1ccccc1-n1cnc2cc(NC(C)=O)ccc21,inconclusive: 1.1 nM
19,COCCNC(=O)c1c(N)n(CCCn2ccnc2)c2nc3ccccc3nc12,inconclusive: 2.6 nM
20,COc1ccc2c(c1)c(=O)oc1c(C)c3occ(C)c3cc12,inconclusive: 4.8 nM

# Two neighbouring entries from above:
row,Structure (SMILES),max dye-equivalent concentration
9,O=c1c2ccccc2nc2n1CC/C2=C/N1CCN(c2cccc(C(F)(F)F)c2)CC1,inconclusive: 1.2 nM
10,O=c1c2ccccc2nnn1CSc1nnc(-c2cccs2)n1Cc1ccccc1,inactive
